# Results reported in PubChem BioAssay AID493014 (National Center for Advancing Translational Sciences (NCATS), 2011).
# The campaign covered roughly 340,000 compounds. About 170 (0.05%) were called active. The inconclusive results got no clear call from the source; some entries with a clear call stand among them for comparison. The call rests on the fitted dose curve; in most records, active means well fitted inhibition curve with a large enough effect in the signal ratio, with a control signal flat (not every such curve was filed as active); inconclusive means small, poorly fitted or top-dose-only effect, or effect the other way, or a change in a side signal; inactive means flat fitted curve, though single readings scatter; the % refers to the signal ratio. Potencies beside an inconclusive call are fits to weak or partial responses and may not hold up.
# Assay: qHTS Assay to Find Inhibitors of Chronic Active B-Cell Receptor Signaling;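 on activity change, negative = inhibition: plate controls were basal doxycycline-induced cells for no effect and cells given 10 µM MG132 for full effect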
# Details: ABC-DLBCL IkBa-CBG/CBR reporter, luminescence ratio (green luciferase fused to IkBa over red control in TMD8 lymphoma cells), 4 h; activity change, negative = inhibition: at 46.1 µM (top of the series)
# How it was run: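 Cell line TMD8 (human ABC DLBCL), stably expressing tet-inducible CBG68-IkBa fusion and CBR; IMDM/0.5% FBS; cpd up to 46 uM; dox induction, 4 h, 37C/5% CO2; dual luminescence; green/red ratio; MG132 control.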
# Potency means the concentration at half of the fitted maximal effect.
Structure (SMILES),Potency,"activity change, negative = inhibition"
CCOc1ccccc1NC(=S)NNS(=O)(=O)c1c(C)cc(C)cc1C,"inconclusive: 18.4 µM [falling, single point]",
CCCCn1c(N)c(N(CC(C)C)C(=O)c2cccs2)c(=O)[nH]c1=O,,inactive: -0.485%
CC(=O)Nc1ccc2nc(-c3cccn3C)[nH]c2c1,,inconclusive: -16.1%
Nc1cc(=O)nc(SCC(=O)N2CCN(c3ccccc3)CC2)n1-c1ccc(F)cc1,,inactive: 0.299%
CCn1c(NC(=S)Nc2ccccc2)nc2ccccc21,"inconclusive: 22.4 µM [falling, single point]",
Cc1sc2nc(CSCC(=O)Nc3c(F)cccc3F)[nH]c(=O)c2c1C,,inconclusive: 16.8%
CCOc1ccc(N(CC(=O)NCc2ccco2)C(=O)CCC(=O)Nc2ccccn2)cc1,,inconclusive: -5.75%
CC(=O)c1ccc2noc(-c3cccc(F)c3)c2c1,,inconclusive: -1.32%
COCCCNC(=O)c1ccccc1N(Cc1ccccc1)S(=O)(=O)c1ccccc1,,inconclusive: 1.26%
CCOC(=O)C1CCCN(c2cc(C)nc3c(-c4ccccc4OC)c(C)nn23)C1 (stereo not drawn),"inconclusive: 2.51 µM [falling, partial curve, poor fit]",
CN(C)C(CNC(=O)c1ccc(C2SCCS2)cc1)c1ccccc1 (stereo not drawn),,inconclusive: -18.8%
Cn1c(Cl)c(/C=N/OC(=O)c2ccccc2Cl)c2ccccc21,,inactive: -7.13%
Brc1ccc(CSc2nnc(-c3ccco3)o2)cc1,,inconclusive: 5.42%
Cc1cccc2sc(NC(=O)CN3C(=O)C4CC=CCC4C3=O)nc12 (stereo not drawn),,inconclusive: 9.97%
Cc1ccc(C)c(NC(NC(=O)c2cccnc2)C(Cl)(Cl)Cl)c1 (stereo not drawn),,inconclusive: 16.4%
CCCn1nnnc1NC(=O)c1cccs1,,inactive: -5.16%
CCOC(=O)C1=C(c2ccccc2)O/C(=C(/C(=O)OC)C(F)(F)F)S1,,inconclusive: 29.9%
COc1ccc2nc(C)c3cc(C)oc3c2c1,,inconclusive: 16.4%
Cc1ccccc1NC(=O)Cn1c(=O)oc2cc(Br)ccc21,"inconclusive: 2.82 µM [falling, partial curve, poor fit]",
O=C(Nc1nc2ccccc2s1)c1ccc(F)cc1,"inconclusive: 35.5 µM [rising, single point]",
O=C(COC(=O)COc1ccc(Br)cc1)NC1CCCC1,,inconclusive: 5.76%
N=c1c2c(-c3ccccc3)c(-c3ccccc3)n(Cc3ccco3)c2ncn1CCCn1ccnc1,"inconclusive: 29.1 µM [falling, single point]",
Cc1cccc(-c2noc(-c3ccc(Cl)cc3[N+](=O)[O-])n2)c1,,inconclusive: 1.52%
COc1ccc(-c2cc(-c3nnc(COC(=O)C4CC4C)o3)c3ccccc3n2)cc1OC (stereo not drawn),,inactive: 11.9%
Cc1cccc(OCCCC(=O)N2CCCc3ccccc32)c1C,"inconclusive: 1.64 µM [rising, partial curve, poor fit]",
O=C(Cc1ccccc1)Nc1ccc(SC(F)F)cc1,"inconclusive: 29.1 µM [falling, single point]",

# Three entries from above, sorted by formula weight, low to high.
Structure (SMILES),Potency,"activity change, negative = inhibition"
Cc1cccc(-c2noc(-c3ccc(Cl)cc3[N+](=O)[O-])n2)c1,,inconclusive: 1.52%
Cc1sc2nc(CSCC(=O)Nc3c(F)cccc3F)[nH]c(=O)c2c1C,,inconclusive: 16.8%
CCOc1ccc(N(CC(=O)NCc2ccco2)C(=O)CCC(=O)Nc2ccccn2)cc1,,inconclusive: -5.75%

# Going on with the list.

Structure (SMILES),Potency,"activity change, negative = inhibition"
C=CCNc1nnc(SC2CC(=O)N(c3ccc(OCCC)cc3)C2=O)s1 (stereo not drawn),,inconclusive: 4.14%
CCNC(C(=O)c1c[nH]c2c(CC)cccc12)c1ccccc1 (stereo not drawn),,inconclusive: 14.4%
O=[N+]([O-])c1cccc(C(=Nc2ccccc2Cl)NO)c1,,inconclusive: 8.02%
O=C(CCNS(=O)(=O)c1cccc2nonc12)NC1CCCc2ccccc21 (stereo not drawn),,inconclusive: 3.53%
COc1ccc(NC(=O)Nc2ccccc2F)cc1Cl,"inconclusive: 12.6 µM [falling, partial curve, poor fit]",
Oc1ccc(/C=N/Nc2ccc(C(F)(F)F)cn2)cc1,"inconclusive: 22.4 µM [falling, single point]",
O=C(Nc1ccc(N2CCN(C(=O)c3ccccc3)CC2)cc1)c1ccc([N+](=O)[O-])o1,"inconclusive: 0.112 µM [falling, full curve, poor fit]",
Cc1ccc2oc(=O)c3cnn(CC(=O)N4CCN(c5ccccn5)CC4)c3c2c1,"inconclusive: 2.06 µM [rising, full curve, poor fit]",
COc1ccccc1N1CCN(/N=C/c2cc(OC)c(OC(C)=O)c(OC)c2)CC1,,inconclusive: 12.4%
COc1ccc(CN2CCCN(S(=O)(=O)c3ccc(Br)cc3)CC2)cc1,,inactive: 0.2%
Cc1ccc(C(=O)NCCCc2ccccc2)c(Cl)c1,,inconclusive: 1.35%
CC(=O)NS(=O)(=O)c1ccc(N=NN2CCCCC2)cc1,,inactive: 5.07%
Oc1ccccc1N=Cc1sc2ccccc2c1Cl,"inconclusive: 25.9 µM [falling, partial curve, poor fit]",
O=C(Nc1ccc(Cl)cc1)N1CCC(c2nc(-c3ccc(F)cc3)no2)CC1,,inconclusive: 0.166%
COc1ccc(-c2cn3c(C)c(C(=O)Nc4cccc(C)n4)sc3n2)cc1,"inconclusive: 23.1 µM [rising, single point]",
C=Cn1c(N2CCOCC2)nc2c1c(=O)[nH]c(=O)n2C,,inconclusive: -2.12%
CCN(CC)S(=O)(=O)c1ccc(NC(=O)c2ccccn2)cc1,"inconclusive: 16.4 µM [falling, single point]",
Cc1ccccc1Cn1nnc(C(=O)Nc2ccc3c(c2)OCCO3)c1N,,inactive: 2.85%
Cc1ccc(S(=O)(=O)CC(=O)Nc2sc3c(c2C#N)CCCC3)cc1,,inactive: -16.1%
Cc1sc2ncn(CC(=O)NCCCN3CC(C)CC(C)C3)c(=O)c2c1S(=O)(=O)N1CC(C)CC(C)C1 (stereo not drawn),,inactive: -2.36%
Cc1cc(C)cc(-n2c(SCC(=O)NCc3ccco3)nc3ccccc3c2=O)c1,,inconclusive: 13.8%
COc1ccccc1N1CCN(C(=O)CN(c2ccc(C)c(C)c2)S(C)(=O)=O)CC1,,inconclusive: -11.1%
Cc1cc(C2CCCCC2)n(O)c(=O)c1,"inconclusive: 29.1 µM [falling, single point]",
Cc1ccc(C)c(C(=O)COC(=O)c2n[nH]c3ccccc23)c1,"inconclusive: 29.1 µM [falling, single point]",
COc1ccc(NC(=O)CNC(=O)c2nn(-c3ccc(OC)c(OC)c3)c(=O)c3ccccc23)c(OC)c1,,inconclusive: -7.11%
CCOC(=O)/C(N=O)=C(\O)C1CCN(C(=O)OCC)CC1,,inconclusive: -2.19%

Structure (SMILES),Potency,"activity change, negative = inhibition"
COc1ccccc1NC(=O)C(=O)NCC1CCCN1S(=O)(=O)c1cccs1 (stereo not drawn),"inconclusive: 4.11 µM [falling, partial curve]",
CCCN(CCC)CCCNC(=O)C1CCN(S(=O)(=O)CC)CC1,,inconclusive: -2.84%
COc1ccc(C)c2sc(N(Cc3cccnc3)C(=O)C3CCCCC3)nc12,"inconclusive: 20 µM [falling, single point]",
Cc1c(O)c(S(=O)c2ccccc2)c(=O)n(-c2ccccc2)c1-c1ccccc1 (stereo not drawn),,inconclusive: 8.87%
CCOC(=O)CCNC(=O)Nc1ccc2nc(C)n(Cc3ccc(Cl)cc3)c(=O)c2c1,,inconclusive: -6.34%
O=C(Cn1c(=S)[nH]c2ccccc21)c1ccccc1,,inactive: 0.472%
COc1ccc(-c2cc(C(=O)NNC(=S)NC(=O)c3c(-c4ccccc4)noc3C)[nH]n2)cc1,,inconclusive: -10.4%
CCC(C)N1CC(=O)N2C(c3ccc(OC)cc3OC)c3[nH]c4ccccc4c3C[C@H]2C1=O (stereo partly drawn),,inconclusive: -5.19%
OCCNCC(O)Cn1c2ccccc2c2ccccc21 (stereo not drawn),,inconclusive: 6.11%
COc1ccc(Cl)cc1C1=CC(=O)C[C@H](c2ccc(F)cc2)C1,,inconclusive: 5.5%
Cc1ccc(C)c(Cn2nnc3c(=O)[nH]c(C4CCN(S(=O)(=O)c5ccc(S(=O)(=O)N(C)C)cc5)CC4)nc32)c1,,inconclusive: 1.62%
S=C(NCc1ccncc1)Nc1ccc(Cl)cc1,,inconclusive: 1.57%
Cc1ccc(CN2C(=O)N/C(=C\c3cccn3-c3cccc(C(=O)O)c3)C2=O)cc1,,inconclusive: -5.54%
COc1ccc(NC(=O)CN(c2ccc(OC)c(Cl)c2)S(=O)(=O)c2ccccc2)c(OC)c1,,inconclusive: -0.245%
O=C1c2cc([N+](=O)[O-])cc3cc([N+](=O)[O-])cc(c23)C(=O)N1c1ccccn1,,inactive: -8.21%
Cn1cnc([N+](=O)[O-])c1Oc1cccc2ccccc12,"inconclusive: 18.4 µM [falling, partial curve, poor fit]",
Clc1cnc(N/N=C/c2ccncc2)c(Cl)c1,,inconclusive: -21.7%
O=C(CCl)NNc1nc(-c2ccccc2)c2cc(Cl)ccc2n1,,inconclusive: 0.116%
Cc1ccc(CNC(=O)c2ccccc2NS(=O)(=O)c2ccc(Cl)nc2)cc1,,inconclusive: 0.718%
CC(C)(C)C(=O)Oc1cc(N)n(S(=O)(=O)c2ccccc2)n1,,inconclusive: -20.4%
O=C(Cc1ccc(Br)cc1)Nc1ccc(S(=O)(=O)Nc2ncccn2)cc1,,inactive: 1.9%
CCCn1c(NC(=O)C2COc3ccccc3O2)nc2ccccc21 (stereo not drawn),,inconclusive: 8.54%
CC(=O)NS(=O)(=O)c1ccc(N=c2ssc3c2-c2cc(C)c(C)cc2NC3(C)C)cc1,"inconclusive: 3.66 µM [rising, partial curve, poor fit]",
O=C(Nc1nc2ccccc2[nH]1)c1cc(F)cc(F)c1,"inconclusive: 3.16 µM [falling, full curve, poor fit]",
Nc1c(N(Cc2ccco2)C(=O)c2cccc(Cl)c2)c(=O)[nH]c(=O)n1Cc1ccccc1,"inconclusive: 9.2 µM [falling, partial curve]",
CCCCn1c(-c2ccc(Cl)c(Cl)c2)nc2cc3[nH]c(=O)c(C(C)C)nc3cc21,,inconclusive: -13.6%
